No constants are given. Whether binding was seen depends on the method and setting. Binding calls can cover weak binding; strength is not graded here.
Experiments:
[1] = biological target: long form of human leptin receptor, stably transfected in BAF/3 cells (cell homogenate) (human) (UniProt P48357); assay: competition with 125I-hLEP, homogenate of BAF/3 cells with long-form human leptin receptor
[2] = biological target: long form of human leptin receptor, stably transfected in BAF/3 cells (cell homogenate) (human) (UniProt P48357); assay: competition of unlabeled leptin with 125I-human leptin for binding to homogenate of BAF/3 cells transfected with the long form of human leptin receptor

Chains of the proteins cited; added tags and fusions are not shown. Lines headed by an entry give the natural chain unless they say otherwise; changes in a name come on top.
UniProt P48357: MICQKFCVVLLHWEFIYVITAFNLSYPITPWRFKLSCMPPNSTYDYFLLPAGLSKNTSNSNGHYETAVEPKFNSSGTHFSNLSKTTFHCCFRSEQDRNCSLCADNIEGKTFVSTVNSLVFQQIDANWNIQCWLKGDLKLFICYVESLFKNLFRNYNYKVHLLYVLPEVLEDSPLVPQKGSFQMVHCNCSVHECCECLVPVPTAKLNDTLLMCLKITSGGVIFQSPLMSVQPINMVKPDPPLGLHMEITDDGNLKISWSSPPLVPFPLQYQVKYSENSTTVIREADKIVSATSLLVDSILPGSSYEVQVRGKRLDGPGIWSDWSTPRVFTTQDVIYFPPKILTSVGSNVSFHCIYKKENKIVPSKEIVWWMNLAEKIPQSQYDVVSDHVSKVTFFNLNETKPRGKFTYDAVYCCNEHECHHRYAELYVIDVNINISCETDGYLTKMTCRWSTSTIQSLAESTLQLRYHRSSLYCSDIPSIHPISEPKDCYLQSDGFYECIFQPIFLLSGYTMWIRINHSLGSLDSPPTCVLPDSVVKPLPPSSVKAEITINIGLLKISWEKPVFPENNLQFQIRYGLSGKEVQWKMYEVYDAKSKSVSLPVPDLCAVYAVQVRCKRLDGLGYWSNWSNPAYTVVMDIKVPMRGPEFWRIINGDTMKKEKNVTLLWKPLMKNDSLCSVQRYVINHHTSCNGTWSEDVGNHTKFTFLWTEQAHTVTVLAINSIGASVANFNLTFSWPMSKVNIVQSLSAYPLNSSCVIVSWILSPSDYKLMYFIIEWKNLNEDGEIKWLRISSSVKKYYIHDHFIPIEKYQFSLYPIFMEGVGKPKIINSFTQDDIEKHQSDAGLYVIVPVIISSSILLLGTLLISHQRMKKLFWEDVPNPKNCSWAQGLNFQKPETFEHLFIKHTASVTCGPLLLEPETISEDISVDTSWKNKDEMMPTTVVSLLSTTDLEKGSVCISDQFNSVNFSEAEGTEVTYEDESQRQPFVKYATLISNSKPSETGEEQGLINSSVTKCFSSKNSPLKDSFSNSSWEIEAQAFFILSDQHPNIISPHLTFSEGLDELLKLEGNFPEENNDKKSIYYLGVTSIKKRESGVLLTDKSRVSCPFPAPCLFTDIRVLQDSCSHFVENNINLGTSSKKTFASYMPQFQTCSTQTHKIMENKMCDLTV
UniProt Q28603: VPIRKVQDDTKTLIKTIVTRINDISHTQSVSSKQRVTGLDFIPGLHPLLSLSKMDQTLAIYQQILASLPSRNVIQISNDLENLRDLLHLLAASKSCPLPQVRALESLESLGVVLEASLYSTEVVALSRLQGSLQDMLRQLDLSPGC

binding [1]: binds
binding [2]: binds
Substance: ovine leptin (fraction SP) (from UniProt Q28603 1-146) (ligand)
